According to PMC11651612:
Results are given in words; binding and its absence hold for the method and conditions named. In cells and extracts the contact can be indirect. Here binding means that the protein was enriched with, or labelled near, the bait; the list need not be complete. Tags and fused reporters may be left off the sequences shown.

T1: Cdc3-mCherry (C. neoformans) (UniProt J9VUF2)
T1 sequence: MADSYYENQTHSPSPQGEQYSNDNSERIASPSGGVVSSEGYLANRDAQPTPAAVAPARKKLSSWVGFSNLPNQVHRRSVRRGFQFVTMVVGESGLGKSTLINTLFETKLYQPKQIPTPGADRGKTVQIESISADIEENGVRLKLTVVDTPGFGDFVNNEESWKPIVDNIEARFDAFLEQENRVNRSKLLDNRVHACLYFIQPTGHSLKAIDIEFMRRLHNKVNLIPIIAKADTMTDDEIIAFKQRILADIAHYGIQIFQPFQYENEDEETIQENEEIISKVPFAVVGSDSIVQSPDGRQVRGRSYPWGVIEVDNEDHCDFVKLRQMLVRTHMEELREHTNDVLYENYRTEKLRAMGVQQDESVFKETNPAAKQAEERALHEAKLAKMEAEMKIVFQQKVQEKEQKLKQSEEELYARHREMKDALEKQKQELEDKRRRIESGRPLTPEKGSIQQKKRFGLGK


Target: T1, Cdc3-mCherry (C. neoformans)
Experiment: affinity purification with mass spectrometry; mCherry-tagged septin captured from C. neoformans lysate on RFP-Trap agarose, 4 h at 4°C, washed with TBS with 2 M urea pH 7.5; GeLC-MS/MS; untagged H99 as negative control; hits logFC >2 and adjusted p <0.001 (text-named hits <0.05); exponential cultures at ~25°C or shifted to 37°C for 2 h; N = 5

| Binder | binding |
| --- | --- |
| Pre-mRNA-splicing factor CWC24 (protein, UniProt J9VRG9 1-328) MSEAPAPVVTFKKGPSRRPAQSRQRRRSPSPLDPVAETSASASSSSVVRPEKKSLANPLVQGTKRRRTNANNEEENGVGGGLDEFDYAAEGGLTRKGDELATRANDWDLEDGDGQGKRDKKVRLDEDGEIVTDDGLYRGASAYLPTINKTRETLDKKMKSGPIKATSHVRTITLMDYQPDVCKDYKETGFCGYGDSCKFLHDRGDYLAGWQLDKLPEEGVREVEEEDEEEEVPFACLICRQPFTQPVVTKCGHYFCMGCAAKRFQKSPKCYACGAPTQGIFNIADKVIAKIEARNKARREAREERAEQTGGGGIEIGGGSDDEGSDEE | binds |
| Replication factor C subunit 2/4 (protein, UniProt J9VWI5 1-363) MSAFAPRQAAPIKDPKLQPWVEKYRPKTIDDVSSQDNTVAVLRKALASTNLPHMLFYGPPGTGKTSTILALARQLFGPDLFRARVLELNASDERGISVVREKIKSFARETPRHAPGISSDGKEYPCPPFKLIILDEADSMTQDAQSALRRIMETYSKITRFCLVCNYVTRIIEPLASRCSKFRFKPLEQGSTRARMEMIAENEGVQTDPGVISLILELAGGDLRKAITYLQTAQRLHSSIEPPTPVSALSIHEISGVVPEDLITDLLAAMGVDRQIGIDRSLARGFDGVMVAVKRVEREGWSVGQVLEQIHDALIPIPSIPAVQKSLAGIAIAECDKGLCEGGDEELQLLDCMLRIKDIMGRL | binds |
| Fumarate reductase (protein, UniProt J9VYC0 1-637) MSKVKVIIVGGGLSGLSAAHTVLERGGNVLLLDKNSFMGGNSTKATSGINGANTQAQQALGIPDTSAKFFADTKKSARELARDDLIRVLTYKSGDAVNWLIERFNLDLSKVSRLGGHSEKRTHRGTQQFPGMTITYALMEKLEDMAEQHPDRVKILKKAKVTKLLQENGKVIGVDYEREGKHYTEYGPVVLATGGYAADFTADSLLKQHRPEYYNLPTTNGDHCTGDGHKMAMLIGAKGIDLEKVQVHPTGLVDPKDPDAKVKFLAAEALRGVGGLLINRDGERFVDELEHRDYVTGKMWENDKFPVRLVLNSTSSKEIEWHCKHYVGRGLMKKFNSGEELAKEIGCSPEALKKTFDDHNRYAKNPGTDPFGKKFFSGGDFSMSDTYHAAIMTPVLHYTMGGLEIGINAAVHNANGGEVEGLYACGELAGGVHGANRLGGSSLLGCVVFGRVAGDSVSSYLLSSLANADANVKAAKRLGTINNHLVETKIKLDPESKALQVSFSWGDKTGDQSQKDAGGAQVPANSAPGQKGDRTAAEIEPEALPTPPAKKGSEKGTSDKKEYTLEEVAKHNTEKDCWVVIGGQVLDVTNFLEDHPGGVKAIMLYAGRDATEEFDMIHPPNAIAKYAPDTVIGTIKQ | binds |
| Glutathione transferase (protein, UniProt J9VLS0 1-249) MPHQIILHHLNNSRSDRIFWTLEELNLPYDVQVHFRLPTRSAPPSLHKVSPLGRAPALILDGRLLTESAYIIHTLLSLPEVQQAAQKGEIDVQVENTNDDVFWSHFAEASMMNLLQGMATVGATSQGWLSGKVPGLPELSEDEKKGIQKYSSWVQDGYFRPNIQSPIDFAENFLAKQDAPFFSGTSKPGEGDFMMFFAINSLLGGSRADMGFKVGPNLKKWYDIVLSRPAGKKALERLKQEEESAKAKI | binds |
| Vigilin 1 (protein, UniProt J9VS18 1-1289) MAFSAADLQKQHQELEGAPDPFPALAHAPVPVAKKVQSAPAPLDTSSEDAFPSLAAPSAPSSKGNVKPAISMWASKSSAVKTGVAKPMAPGGLGRTGTPTAGSHPFAETFSIPANELVQGKAASDVVKKVQDQTGAIVESSTQMRTGLKTFHVKAADQKKLAQAKRMIEGGLRKPVTVQVEVPITTLGTIIGPKGATLKGITDATGAKVDVPRRETLPSYTPKDNGSDAGSDDEDGEPQVSITISGPATGCTDAKDRILSLISHKMSQTSTSIKTIPSAFYTIISTQVSELEQGPGEGKVTVKVPIPAVWKALERQAQADAEGEKVVVDGEAPIKVKGDRENVKAVIDEITKSYDSLVQSFNLKKVSIPKRQHRFLIGSAAEDILAQTGCVVELPPVDDPSDRVVIRGPPAKLVAAQSLVFEKANAVSVEPLDLVSVFRRTTSDPVTHATNILRYLRASKLKDVSSAYPNVQIFPPFPSTVANTGTVIIEIVSEDGEEVSKVVDEITNLAKGILPSAVSIVQVDHLAHSLLVGKKGTRIAQFEKTHNVTVVFPPASEESSNVLLVYTGPADKDVKLEEVFEGASKDLTELAKEVADIKTEILEVEKKWHKYIIGQNGSVLNAIIGEDALVSVKVGTSTTKFPSTGSEDSVTIRGPRNEVDRVTKQIKQVVEDAKNDDIVNGYTVKFDVEKKYVPHLVGQAGAAINKLRETLGVKVNFEDAPEKETKKGAKKVLVNCSIVGRKEPVEEAKKRLIAQIEKLEDETTEVLSIKRAIQPALIGAGGKYAIRLEEKYGVKLSFPRDSKDKESGANPDQVTIRGGRKGVAAVKAELLEAAAFETESRQEATFKVPSKAVAQIVGKGGATINAIKNDTGAQIDIEREGGEDKQTTITVRGDKQAIAAAKEAVLNVVKEVGDEITVELTIEQKYHRNLIGQGGQNLRDLIASAGGPSEGYKQAGLVTFPKNGDESTDKVRLRGDSKVVKKIQTELEKQVAVLKDTIVIGVVVPATQHATKIGRGGMALQDLQRKTGAVIHFPGSRQYSSIGEIENQDDLEGVSEGDIVKVIGTKEVTQKAAELLQVTSERGQRSDSRQGRATPDLVSCPVSIPNKYYHAIAETPNLIRQIRAVGGYLNIPQPAPAKPSLKRPEPTSGDDLAAKTARIDLDGDETVPDVQGEWSLVKNFEGADDEKSEWVVRAKEEDLERAVKVLEQALEKARKATHVGYLTGLPRSAFPRIIGSKGATISRMRLETGADIQVGKEDDLITIIGDEESVLQAKDAILSIVSRPSRERY | binds |

Results, then the binder that gave them:

| binding | Binder |
| --- | --- |
| binds | Ribosome assembly factor mrt4 (protein, UniProt J9VIQ4 1-245) MPKSKRSRLTTLSKTPIRSTKASKQALVNEIRENVDKYDYCWMFSVGDMRNDGLKEVRAQWRGTGRFFFGKGKVMAKALGDTPETEYQDGLSQIAKRLKGQIGLFFTSHPVDETVEWFDSWHKPEYARMGAKSTMDITLPAGPLLTPFTEPPSGDPFPHSMEPQLRALGLTTSLVRGIPSLNNPHVLCVKGEKLTSEKCRILKLLAIQMADFRIHLGSRWSKESGFVEGKELDEGSEKEDEMEED |
| binds | Transcription elongation factor SPT5 (protein, UniProt J9VJH9 1-1151) MSDIEVKSSPPESPVQEQEETRLAGRKRARVMDPDEEDDDTQVVNNQDEEKDAKEEDDEEGGNGQAEGADEGEDDEDDDEDDDDDEDDEDEDDDGERRAKRRRKQKRFRFLDVEAEVDDEDEEEDEDNDYGDVAEFIDEAPEDVGARDDHQHRRLNRVFGRNEEEDVHDIVQRLKERHAGAARYNGDSDAVPQRLLMPGVNDPSLWKVVVKSGREHAICASIFRKVFAQQYSANPIDVISVFCRDSIPGMIFIEARQSASVSAAVNGIVGIFMSKGVNLVPIEEMAPLLKMKKKDVNLTPGMWVRMKRGKHAGDLAQVVDVDQITSGVVGIKFIPRIDLTPREKRKERIAIGKPGGVRPPARLFAYDDVRKIYGRQSVRQGAQGSYLFDNDEYVDGFCIKDVKIPAVATEDVNPTLEEISRFTGDDDSTAKFDLSAIADANKNLSTSLLFPGDKIEVYEGEQTGLYGIVEAVSPDVIAIKAEGGEVHGQTVEVPARSVRKRFDVGEHVKVLGGKHTDASGMVVEVKGDIVTLMSDLGEQEIKVFSKDLRKAADTTNLTATKGLYDVHDMVMLDSTTAGLVTKVEGGLLRILDQNGAAKSVSPEQVSIRRDNKRFAVATDSQGNDMKVGDNMKETDGEMRQGEVINIFRSIFVFLYNREYTDNFGVFVARANSLISVTPKSAVNDLTKINPALNQQLPYGGASLMPAPTANLNRNRLINTLVVVTKGTSKGLIGVIKDVQGENARVELKHNNKTLSVNLASLKRKDQKTGATFPLETAGIASAAGGYGTRPNAGQYDINPYGGATAMHPSMGGQTPALMGGRTPAVRFGQTPNPYAAGVQNGKTPNPYATGVGGKTPSAAYASGGKTPAWGASGGKTPAYGMASGGKTPAYGIQGGKTPNAYAMGPPGPSGGRTPAYGTYGRPEASGSRPSAMPPPPAPYSAPYSEPTPAGNGAPTPAAPGNAYTAPTPYGAPTPYIAPTPGMPSLSAPTPGPGGGIAPTPFGAPTPYGVQSYGASALQQRGLPWDWALDFRNVIVEIGPSYRPGSRNPLHFKRGFFDGKRFGYNDIIGESVRAILLDDSSVVEEIPAEYLRPAKADSQGQVVVVIGGGPEQKGQQRTTQYENGGSWMMELEGGDMAPLVVDGADLCRIWKV |
| binds | Chlorophyll synthesis pathway protein BchC (protein, UniProt J9VU15 1-349) MVAKEMNALLYSEPRKFEITKVPVPEIGPEEVLLKVDICGVCGTDQHIHEGEFIAKFPLVPGHEAVGRIVAMGDKVKGFDVGDRIAADVGETCGYCHYCRKGTELFCENFAPAGVARDGGFADYIKYHFAKCYKIKNLSDEEATLLEPASCAIHGMDVLKMPFGARVLLIGAGPTGLILAQLMKMGGASHITIAANAGIKMDIARKVEAADEYIDLDRSNPGPQWAKLKEDNPYGFDVVAEATGVESLVNDAINYVTRGGTLLVYGVYEDKARLPGWSPTDIFVNEKRIIGSFSQTYCFPRAIDLLDSGKIKTTGMVTDVFPLSDYQGALDKMASRKALKIAIKPEHKD |
| binds | Glucose and ribitol dehydrogenase (protein, UniProt J9VLN0 1-305) MPPPSSVPKEYRPGYIPPSITGQAQKDLPGKQRPLDPTPFNDVMADGSKYKPAGKLEGKNAVVTGGDSGIGRAVAILYALEGANVLFTYHPSEEADAKDTVDDIKKRAPKAKVEAVAAEIQTEKACFELADKIKKWSGNELHVLANNAGTQKEIPNIEDLPSEQWRHVFDVNIHSMFYLIKSLIPIMPWGSSIINNASINPFVGHPKLLDYTATKGAIVGFSRALSNQIVGERGIRVNCVCPGPIWTPLIVATMGEESLKAFGPGTPIGRAGQPVEVATAFVFLASIDSSYFTAQCFHVNGGSAY |
| binds | Porphobilinogen deaminase (protein, UniProt J9VZ65 1-481) MSCPFHTTTNTSIRNPLPDRALLLAMKSQTNTFILGTRKSNLALVQTGHVADDLRRLHSAAGSKFGETREEGDDAEQGDVPFVHPYTFSIESMTTVGDRNQTTPLHLLSPYSSTQPAKSLWTDELEARLINGHFDMLVHSLKDVPTVLKDGCEIGCMAKRHDPRDALVVKQGLPYKRLEDLPDGAVVGTGSVRRVAQLKRAFPNLVFEDMRGNLNTRFNKLDNPQSPFSALILAMSGLERLGMAHRATSPLSSPTLMHAVGQGALAIEIRSTDPRVRNCLRGLGHWQTEWSCGAERGCLRVLEGGCSVPVGVESELVELDEDEVAAHPELLEGVEDPFRGQEESPLEGDSPMLWFSGLVDTTSTPTPSTPTFSSHSLPPLRTRLAKLTLHSCVTSTDGSKHVLFTPPPVLVRSYRQAEQFGEECARKLRGMGAGEILDEINKLRKERELRDLESAIERSRAAQEEGEKMGLVQDGTAEVVA |
